Reference: PubChem BioAssay AID1347075 (National Center for Advancing Translational Sciences (NCATS), 2019)
The whole screen tested about 400,000 compounds, of which about 5,500 (1.4%) were called active. The inconclusive results got no clear call from the source; some entries with a clear call stand among them for comparison. The call rests on the fitted dose curve; in most records, active means well fitted cell-killing curve with a large enough effect; inconclusive means small, poorly fitted or top-dose-only effect, or effect the other way; inactive means flat fitted curve, though single readings scatter. Potencies of inconclusive entries are doubtful fits and often do not repeat.

Experiment: qHTS assay for MDR1-selective chemotherapeutics: Primary screen using the parental adenocarcinoma cell KB-3-1; further: nearly all actives have a fitted effect of over 60% in size
Conditions: KB-3-1 viability, CellTiter-Glo ATP luminescence, 72 h; activity change, negative = cytotoxic: at 46.1 µM (top of the series)
In short: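 Screening of KB-3-1 cells (DMEM, 10% FBS, phenol-red free) ran from lowest to highest compound concentration; after 72 h at 37 °C viability was read luminescently and curves fitted.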
On the % scale 0 is the no-effect control and ±100 the full control effect; potency means the concentration at half of the fitted maximal effect.

| Structure (SMILES) | Potency | activity change, negative = cytotoxic |
| --- | --- | --- |
| COc1ccccc1N1CCN(C2CCN(S(=O)(=O)c3ccc4ccccc4c3)CC2)CC1 | inconclusive: 23.1 µM [cytotoxic, single point] | – |
| COC(=O)C1=CN(CCOC23CC4CC(CC(C4)C2)C3)C=C(C(=O)OC)C1c1ccsc1 | inconclusive: 29.1 µM [cytotoxic, single point] | – |
| O=C1C2C3C=CC(CC3)C2C(=O)N1c1ccc(Br)cc1 (stereo not drawn) | – | inactive: 0% |
| COc1ccccc1-c1cc(C(F)(F)F)nc(S(=O)(=O)CCCC(=O)Nc2cc(C)on2)n1 | inconclusive: 29.1 µM [cytotoxic, single point] | – |
| COc1cc(C(=O)Nc2ccc(-c3nc4ccccc4o3)c(O)c2)cc(OC)c1OC | – | inactive: -7.96% |
| CC(=O)N1c2ccccc2N(Cc2ccc(C)cc2C)C(=O)C1(C)C | active: 4.11 µM | – |
| COc1ccc(S(=O)(=O)N2CCC(C(=O)c3ccc4c(c3)OCCO4)CC2)cc1 | – | inconclusive: -30.7% |
| O=C(Nc1nc(N2C(=O)c3ccccc3C2=O)n(-c2ccccc2)n1)c1ccc(F)cc1 | – | inactive: -3.62% |
| COc1ccc2c(C)c(Cl)c(=O)oc2c1 | – | inactive: 15.9% |
| COc1ccc(-n2c(-c3ccc(Cl)cc3)c[n+]3c2CCc2ccccc2-3)cc1 | inconclusive: 11.6 µM [cytotoxic, partial curve, poor fit] | – |
| O=C(NC1CCCCC1)c1n[nH]c2c1CC(c1ccccc1)CC2 (stereo not drawn) | inconclusive: 23.1 µM [cytotoxic, single point] | – |
| COc1ccc(C(=O)Nc2ccccc2C(=O)NC(C)C)cc1OC | – | inactive: 15.9% |
| CCOC(=O)[C@H]1[C@H]2COc3cc(OC)ccc3[C@@H]2N2C(=O)c3cc(F)c(F)cc3NC(=O)[C@@]12C | inconclusive: 3.26 µM [cytotoxic, partial curve, poor fit] | – |
| O=C(/C=C/c1ccc(N2CCCCC2)c([N+](=O)[O-])c1)c1ccc(O)cc1 | inconclusive: 29.1 µM [cytotoxic, single point] | – |
| COc1ccc(C(C)=O)cc1CSc1nnc(-c2ccncc2)o1 | inconclusive: 13 µM [cytotoxic, partial curve, poor fit] | – |
| Cc1cc(C)c(CSc2ncnc3nc[nH]c23)c(C)c1 | – | inactive: -8.63% |
| Nc1cc(S(=O)(=O)Nc2ccc(Cl)cc2)ccc1N1CCOCC1 | active: 23.1 µM | – |
| CN1C/C(=C/c2cccnc2)C(=O)/C(=C/c2cccnc2)C1 | inconclusive: 29.1 µM [cytotoxic, single point] | – |
| O=C(Nc1ccccc1N1CCCC1)c1ccc([N+](=O)[O-])o1 | active: 23.1 µM | – |
| Brc1cccc[n+]1CCC[n+]1ccccc1Br | inconclusive: 23.1 µM [rising, single point] | – |
| C[C@@H](NCCc1ccc(O)cc1)[C@@H](O)c1ccc(O)cc1 | – | inconclusive: 0% |
| CCC(=O)Oc1oc(-c2ccccc2)nc1C=Nc1ccc(C)cc1 | – | inactive: -0.409% |
| O=C(/C=C/c1cccs1)c1cc(Cl)ccc1OC(=O)N1CCOCC1 | inconclusive: 25.9 µM [cytotoxic, single point] | – |
| O=C(N/N=C/c1ccc2c(c1)OCO2)c1ccc2c(c1)OCCO2 | active: 16.4 µM | – |
| CC(=O)C(=Nc1ccc(Cl)cc1Cl)NNc1cccc(Cl)c1 | inconclusive: 18.4 µM [cytotoxic, single point] | – |

| Structure (SMILES) | Potency | activity change, negative = cytotoxic |
| --- | --- | --- |
| COc1ccc(CCn2c(Br)nc3c2c(=O)[nH]c(=O)n3C)cc1 | active: 5.17 µM | – |
| O=C1[C@H]2[C@@H](c3ccccc3)N[C@]3(CCCN(Cc4ccc(C(F)(F)F)cc4)C3=O)[C@H]2C(=O)N1Cc1ccccc1 | – | inactive: 0% |
| O=C(NCc1ccccc1)C1CCC(=O)N(CCN2CCOCC2)C1 (stereo not drawn) | – | inactive: 9.01% |
| COCC(C)n1c(SCc2nc3ccccc3c(=O)[nH]2)nc2ccccc2c1=O (stereo not drawn) | inconclusive: 1.64 µM [rising, partial curve, poor fit] | – |
| COc1ccccc1-c1c(C)nn2c(-c3ccccc3)cc(C)nc12 | inconclusive: 23.1 µM [cytotoxic, single point] | – |
| COc1cc(OC)c(OC)cc1/C=C/c1ccc2ccccc2n1 | inconclusive: 20.6 µM [cytotoxic, single point] | – |
| Cc1ccc2c(C)nc(Nc3nc(CSc4nnc(C)s4)cc(=O)[nH]3)nc2c1 | inconclusive: 35.5 µM [cytotoxic, single point] | – |
| CCC(=O)Nc1nonc1-c1nc2ccccc2n1Cc1ccc(Cl)c(Cl)c1 | – | inactive: 2.3% |
| O=C(Nc1ccc([N+](=O)[O-])cc1)c1cc(Cl)sc1Cl | inconclusive: 29.1 µM [cytotoxic, single point] | – |
| CCOc1ccc(CC(=O)Nc2ccc3c(c2)N(C)C(=O)c2ccccc2S3)cc1OCC | – | inactive: -18.9% |
| COc1ccc(C(=O)Nc2ccccc2C(N)=O)cc1 | inconclusive: 16.4 µM [cytotoxic, partial curve] | – |
| O=C1C=C(c2cc(Cl)cc(Cl)c2)C[C@@H](c2ccc3c(c2)OCO3)C1 | inconclusive: 23.1 µM [cytotoxic, single point] | – |
| COc1ccc(NC(=O)c2cccnc2)c([N+](=O)[O-])c1 | active: 16.4 µM | – |
| O=C(Nc1ncc(Cc2ccc(Cl)cc2Cl)s1)c1ccc([N+](=O)[O-])cc1 | active: 5.8 µM | – |
| CC(CCCC(C)(C)O)NC(=O)c1cc(COc2ccc3ncccc3c2)on1 (stereo not drawn) | inconclusive: 13 µM [cytotoxic, partial curve, poor fit] | – |
| CC(C)(C)c1ccc(NC(=O)C(=O)C2C(=O)Nc3ccccc32)cc1 (stereo not drawn) | – | inactive: -3.14% |
| O=C1c2cccc3c(N4CCCCC4)ccc(c23)C(=O)N1c1cccc(O)c1 | inconclusive: 18.4 µM [cytotoxic, single point] | – |
| COc1ccc(CNc2nc(S(=O)(=O)c3ccccc3)c(Cl)s2)cc1OC | inconclusive: 16.4 µM [cytotoxic, partial curve] | – |
| S=c1nc[nH]c2c1cnn2-c1ccccc1 | inconclusive: 23.1 µM [cytotoxic, single point] | – |
| O=C(CSc1nc(C(F)(F)F)cc(=O)[nH]1)Nc1ccc2c(c1)OCCO2 | – | inconclusive: 31.3% |
| Cc1cc(C2=NNC(=NC3CC3)SC2)c(C)n1Cc1ccco1 | active: 3.26 µM | – |
| CCCCCCCCCC[n+]1cccc2cc(Cl)ccc21 | active: 5.17 µM | – |
| CC1CCN(S(=O)(=O)c2cn(CC(=O)Nc3ccc(F)c(Cl)c3)c(=O)c3ccccc23)CC1 | inconclusive: 29.1 µM [cytotoxic, single point] | – |
| Cc1ccc(C(=O)c2c(C)oc3c2C(=O)C(=O)c2ccccc2-3)cc1 | inconclusive: 18.4 µM [cytotoxic, single point] | – |
| CC(C)Oc1ccc(C(=O)Nc2nc3ccccc3[nH]2)cc1 | inconclusive: 11.6 µM [cytotoxic, partial curve, poor fit] | – |

| Structure (SMILES) | Potency | activity change, negative = cytotoxic |
| --- | --- | --- |
| Cc1ccc(NC(=O)CCc2c(C)nc3c(-c4ccccc4)c(C)nn3c2C)c(C)c1 | – | inactive: -12.2% |
| Cc1cc2c(cc1C)NC(CC(=O)NCc1ccccc1)C(=O)N2 (stereo not drawn) | – | inactive: -1.62% |
| O=[N+]([O-])c1cc(S(=O)(=O)O)cc([N+](=O)[O-])c1NN(c1ccccc1)c1ccccc1 | – | inactive: 27.6% |
| COc1ccc(/C=N\NS(=O)(=O)c2ccc(C)cc2)cc1COc1ccccc1[N+](=O)[O-] | – | inactive: 5.67% |
| Cc1ccsc1/C=N/NC(=O)CC(=O)NCC(C)C | – | inactive: 5.77% |
| OC(c1ccccc1)(c1ccccc1)c1nccc2ccccc12 | inconclusive: 18.4 µM [cytotoxic, partial curve, poor fit] | – |
| CN(C)c1ccc(/C=C(\NC(=O)c2ccccc2)C(=O)NCCCn2ccnc2)cc1 | – | inactive: 20.8% |
| Brc1ccc2c(ccc[n+]2CCc2ccccc2)c1 | inconclusive: 20.6 µM [cytotoxic, single point] | – |
| O=C(CNC(=O)c1cc(-c2ccccc2)nn1-c1ccccc1)Nc1ccccc1Br | – | inactive: -0.976% |
| CCN(CC)CCN(C)c1ccc(/C=C/c2ccnc3ccccc23)cc1 | inconclusive: 29.1 µM [cytotoxic, single point] | – |
| CCCCCCCCCCOC(=O)NC1CCS(=O)(=O)C1 (stereo not drawn) | – | inactive: -3.42% |
| CC(=O)c1cc(C(=O)c2ccccc2)sc1Nc1ccccc1 | inconclusive: 18.4 µM [rising, partial curve, poor fit] | – |
| Cc1nnc(NN)n(N)c1=O | inconclusive: 3.66 µM [rising, partial curve, poor fit] | – |
| CC(C)c1ccc2c(c1)CCC1C(C)(CN)CCCC21C (stereo not drawn) | active: 20.6 µM | – |
| CCCCn1c(=O)[nH]c(=O)c2c1nc(-c1ccc(OC)c(Br)c1)n2CC(C)C | inconclusive: 29.1 µM [cytotoxic, single point] | – |
| CCOc1ccc(Br)cc1S(=O)(=O)Nc1ccc(NC(=O)c2ccccc2F)cc1 | inconclusive: 18.4 µM [cytotoxic, partial curve] | – |
| Cc1ccccc1-n1cc(C(=O)c2cc(Cl)ccc2O)cc(C#N)c1=O | inconclusive: 29.1 µM [cytotoxic, single point] | – |
| N#C/C(=C\c1ccccn1)c1ccccn1 | inconclusive: 23.1 µM [cytotoxic, single point] | – |
| COc1cccc(CCN2C(=O)CCC3=C2CCC3=O)c1 | – | inactive: 0% |
| COc1c(C)cc(S(=O)(=O)Nc2cccc(-c3ccc(N4CCOCC4)nn3)c2)c(C)c1C | active: 20.6 µM | – |
| CCOc1ccc(NC(=O)CN2CCN(Cc3ccccc3)S2(=O)=O)cc1 | – | inactive: 1.82% |
| Cc1ccc(OCC(=O)Nc2ccc(C)c(S(=O)(=O)N3CCCCCC3)c2)c([N+](=O)[O-])n1 | inconclusive: 20.6 µM [cytotoxic, partial curve, poor fit] | – |
| Cc1c(C(=O)Nc2ccc(-c3nnc4n3CCCCC4)cc2)oc2c1ccc1ccccc12 | inconclusive: 20.6 µM [cytotoxic, single point] | – |
